The values that follow come from publication PMC5996148.

Amino acid sequences for entries named in this document (tags omitted). A change or cut given only in a name is not applied to a line headed by its entry.
UniProt Q6PI47: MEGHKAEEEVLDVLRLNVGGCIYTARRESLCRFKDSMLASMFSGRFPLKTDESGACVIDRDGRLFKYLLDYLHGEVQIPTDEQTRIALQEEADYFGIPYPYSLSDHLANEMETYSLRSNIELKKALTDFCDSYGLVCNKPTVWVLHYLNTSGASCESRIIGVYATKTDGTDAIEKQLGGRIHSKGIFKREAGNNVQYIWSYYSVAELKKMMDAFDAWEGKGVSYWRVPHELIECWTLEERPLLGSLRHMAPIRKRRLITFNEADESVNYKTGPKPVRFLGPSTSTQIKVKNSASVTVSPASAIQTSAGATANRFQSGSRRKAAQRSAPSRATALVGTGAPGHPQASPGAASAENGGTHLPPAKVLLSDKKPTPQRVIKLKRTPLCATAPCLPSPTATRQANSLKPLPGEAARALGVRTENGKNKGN
UniProt O00139: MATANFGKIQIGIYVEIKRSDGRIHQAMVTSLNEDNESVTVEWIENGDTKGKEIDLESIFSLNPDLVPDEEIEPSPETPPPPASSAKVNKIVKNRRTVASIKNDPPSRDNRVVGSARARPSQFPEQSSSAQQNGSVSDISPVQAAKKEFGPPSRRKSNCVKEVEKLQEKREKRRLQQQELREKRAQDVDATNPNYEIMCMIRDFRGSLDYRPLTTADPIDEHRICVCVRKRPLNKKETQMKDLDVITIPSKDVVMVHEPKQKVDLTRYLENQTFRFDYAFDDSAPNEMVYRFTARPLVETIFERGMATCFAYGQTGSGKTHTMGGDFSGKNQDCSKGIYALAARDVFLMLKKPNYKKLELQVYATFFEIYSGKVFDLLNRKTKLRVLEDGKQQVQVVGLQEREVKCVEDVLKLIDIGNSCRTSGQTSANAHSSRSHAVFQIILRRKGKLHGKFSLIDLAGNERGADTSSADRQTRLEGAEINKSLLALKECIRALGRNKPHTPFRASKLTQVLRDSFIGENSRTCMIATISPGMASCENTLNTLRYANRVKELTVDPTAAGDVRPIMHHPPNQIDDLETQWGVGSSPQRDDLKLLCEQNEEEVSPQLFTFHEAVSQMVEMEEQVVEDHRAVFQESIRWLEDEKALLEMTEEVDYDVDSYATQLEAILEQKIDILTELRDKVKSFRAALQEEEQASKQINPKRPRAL
UniProt Q6P597: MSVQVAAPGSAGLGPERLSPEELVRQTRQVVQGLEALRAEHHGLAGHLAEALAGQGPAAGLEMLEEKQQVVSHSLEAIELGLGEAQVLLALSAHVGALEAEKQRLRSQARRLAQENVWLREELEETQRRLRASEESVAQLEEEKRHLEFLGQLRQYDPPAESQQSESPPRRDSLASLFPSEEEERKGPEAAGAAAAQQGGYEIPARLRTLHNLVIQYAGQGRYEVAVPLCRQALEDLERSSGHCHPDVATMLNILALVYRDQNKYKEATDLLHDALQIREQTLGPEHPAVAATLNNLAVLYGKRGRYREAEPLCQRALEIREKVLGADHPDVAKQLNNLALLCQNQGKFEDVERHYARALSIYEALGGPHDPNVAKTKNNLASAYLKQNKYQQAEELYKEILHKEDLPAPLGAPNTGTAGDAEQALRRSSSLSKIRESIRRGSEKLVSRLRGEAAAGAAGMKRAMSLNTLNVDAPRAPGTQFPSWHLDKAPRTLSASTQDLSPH
UniProt Q9NSK0: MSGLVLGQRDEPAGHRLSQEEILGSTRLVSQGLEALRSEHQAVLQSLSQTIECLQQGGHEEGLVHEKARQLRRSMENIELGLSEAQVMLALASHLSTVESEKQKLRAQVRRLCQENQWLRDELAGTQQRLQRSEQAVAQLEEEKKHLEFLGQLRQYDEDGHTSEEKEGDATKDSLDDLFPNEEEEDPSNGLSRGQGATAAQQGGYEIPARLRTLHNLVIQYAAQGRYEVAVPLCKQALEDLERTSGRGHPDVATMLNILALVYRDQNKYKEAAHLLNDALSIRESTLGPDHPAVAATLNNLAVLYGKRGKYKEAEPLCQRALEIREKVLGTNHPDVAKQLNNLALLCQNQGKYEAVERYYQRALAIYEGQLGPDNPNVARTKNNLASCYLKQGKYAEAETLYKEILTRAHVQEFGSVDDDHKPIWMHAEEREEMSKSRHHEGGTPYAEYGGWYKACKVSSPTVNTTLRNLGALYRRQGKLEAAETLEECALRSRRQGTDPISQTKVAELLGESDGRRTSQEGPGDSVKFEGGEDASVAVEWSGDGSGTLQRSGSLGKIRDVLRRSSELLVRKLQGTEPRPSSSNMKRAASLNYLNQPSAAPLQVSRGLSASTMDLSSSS
UniProt Q8TBB5: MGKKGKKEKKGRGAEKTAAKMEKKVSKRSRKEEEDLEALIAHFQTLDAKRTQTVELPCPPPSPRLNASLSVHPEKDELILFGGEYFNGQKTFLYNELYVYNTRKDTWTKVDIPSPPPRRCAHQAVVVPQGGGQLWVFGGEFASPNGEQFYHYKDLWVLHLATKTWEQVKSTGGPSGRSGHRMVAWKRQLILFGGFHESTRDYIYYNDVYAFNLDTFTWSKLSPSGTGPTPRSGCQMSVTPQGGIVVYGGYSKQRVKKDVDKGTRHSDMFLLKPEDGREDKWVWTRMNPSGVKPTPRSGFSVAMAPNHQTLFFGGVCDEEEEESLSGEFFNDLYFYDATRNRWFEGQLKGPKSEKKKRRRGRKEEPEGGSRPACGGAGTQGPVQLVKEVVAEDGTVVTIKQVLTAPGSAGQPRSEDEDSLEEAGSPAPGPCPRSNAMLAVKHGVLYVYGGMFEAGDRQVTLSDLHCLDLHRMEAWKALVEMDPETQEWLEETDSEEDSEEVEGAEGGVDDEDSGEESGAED

Common to all, as to experiment: protein microarray (ProtoArray v5.0), streptavidin-Alexa Fluor 647
Holding throughout (details): 3'-biotin; 20 mM Tris (pH 7.5), 5 mM MgCl2, 100 mM KCl, 0.1% Tween-20, A/T-rich and random oligonucleotide blockers; temperature not stated; high values mean tight binding

The subject of assay [1] is KCNS2 (human).
Assay [2] concerns the target KCTD18 (UniProt Q6PI47).
The subject of assay [3] is KEL (human).
In assay [4] the test system is KHK (human).
In assay [5] the test system is KIAA0174 (human).
Assay [6] has as its system KIAA0562 (human).
Assay [7] deals with KIAA0652 (human).
The subject of assay [8] is KIAA1576 (human).
Assay [9] has as its system KIAA1598 (human).
The subject of assay [10] is KIAA1754 (human).
In assay [11] the target is KIF2A (UniProt O00139).
In assay [12] the test system is KIFC3 (human).
The test system of assay [13] is KIS (human).
Assay [14] relates to KITLG (human).
In assay [15] the target is KLC3 (UniProt Q6P597).
For assay [16], the target named is KLC4 (UniProt Q9NSK0).
Assay [17] has as its system KLF12 (human).
For assay [18], the system named is KLHDC1 (human).
Assay [19] relates to KLHDC2 (human).
Assay [20] deals with KLHDC4 (UniProt Q8TBB5).

The list shows a part of the results. For some assays here: The exact form of the protein is not confirmed.

On to “GGGGACAGGGGTATGGGGAGGGG [G4-3 biotinylated (CtG)]”, for which the binding signal in assay [1] was -0.298 z-score; in assay [2], 3.35 z-score; in assay [3] it was -0.314 z-score; in assay [4] it was -0.336 z-score; in assay [5] it was -0.333 z-score; in assay [6], -0.313 z-score. The binding signal is -0.303 z-score in assay [7]; -0.324 z-score in assay [8]; -0.321 z-score in [9]; -0.33 z-score in assay [10]; 3.6 z-score in assay [11]; -0.336 z-score in assay [12]. Moreover, the binding signal in assay [13] was -0.308 z-score; in assay [14], -0.317 z-score; in assay [15], -0.331 z-score; in [16], -0.33 z-score; in assay [17], -0.334 z-score; in assay [18], -0.331 z-score. Also, the binding signal in assay [19] is -0.307 z-score; in assay [20], 3.41 z-score.
